Measurements from patent publication US20140142180A1, “METHODS OF TREATING TUMORS HAVING ELEVATED MCT1 EXPRESSION” (Whitehead Institute for Biomedical Research, priority 2012, published 2014).
At least one compound was matched to its structure with a doubt left.

Biological target: T1, MCT1 (Homo sapiens, UniProt P53985)
T1 construct: endogenous in cells; host or cells: wild type KBM7 cells (near-haploid human cell line)
T1 sequence (P53985 1-500): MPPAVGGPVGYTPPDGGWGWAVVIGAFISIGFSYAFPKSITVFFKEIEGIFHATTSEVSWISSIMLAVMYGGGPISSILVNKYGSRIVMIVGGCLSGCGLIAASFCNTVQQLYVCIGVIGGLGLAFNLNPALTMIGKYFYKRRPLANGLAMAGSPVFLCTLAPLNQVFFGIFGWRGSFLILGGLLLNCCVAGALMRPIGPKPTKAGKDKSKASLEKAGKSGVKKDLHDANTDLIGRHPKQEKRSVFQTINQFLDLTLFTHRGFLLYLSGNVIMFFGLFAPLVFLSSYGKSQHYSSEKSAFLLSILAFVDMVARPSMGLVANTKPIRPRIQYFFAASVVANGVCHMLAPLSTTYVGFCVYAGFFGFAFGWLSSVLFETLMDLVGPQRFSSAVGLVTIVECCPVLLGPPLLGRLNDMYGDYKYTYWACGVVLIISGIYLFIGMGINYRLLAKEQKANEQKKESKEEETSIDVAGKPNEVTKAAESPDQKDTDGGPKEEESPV
T1 sequence (P35613 140-385 partner limits assumed): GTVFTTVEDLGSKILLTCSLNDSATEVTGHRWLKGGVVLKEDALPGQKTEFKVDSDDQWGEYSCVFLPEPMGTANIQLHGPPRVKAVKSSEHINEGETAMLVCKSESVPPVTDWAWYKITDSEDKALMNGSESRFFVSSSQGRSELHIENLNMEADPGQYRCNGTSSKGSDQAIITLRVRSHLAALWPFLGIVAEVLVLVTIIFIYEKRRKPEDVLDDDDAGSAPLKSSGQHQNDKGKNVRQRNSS
Experiment: 14C-3-BrPA uptake assay, wild type KBM7 cells
Type: cell-based
Conditions: wild type KBM7 in HBSS, up to 20 minutes, unlabeled competitor
Description: Wild type KBM7 or MCT1-null cells were seeded in HBSS and exposed for up to 20 minutes to 100 μM ^14C-labeled 3-BrPA (6.8 mCi/mmole) (Moravek) with or without competitor molecules like 3-BrPA, Pyruvate, L-Lactate and D-Lactate. Cells were washed with cold HBSS, lysed in a NaOH buffer, and uptake measured using a liquid scintillation counter.

**Q.** `CC(=O)C(=O)O` [pyruvate] was tested. Which “competition with the uptake of radiolabeled 3-BrPA” value did it give?
**A.** to a lesser extent
